The target of assay [1] is HA-nLSD1 (neuronal-specific isoform neuroLSD1). The experiment in a line: co-IP; HEK cells, PCDH19-879Δ or PCDH9 with HA-LSD1 or HA-nLSD1, modified RIPA buffer (Figure S4E); which partner was precipitated is not given.
Assay [2] deals with GST-CTF (GST-tagged PCDH19 C-terminal fragment) (UniProt Q8TAB3). The experiment in a line: pull-down; GST-CTF or GST immobilized on beads, incubated overnight at 4°C with adult rat cortex and hippocampus homogenates in modified RIPA buffer; 5 washes; immunoblotting; only the target purified.

By UniProt entry, the sequences of proteins in these tests, tags left out. Where a name states a change or a piece, a line headed by the entry shows the natural chain unless it says otherwise.
UniProt Q8TAB3: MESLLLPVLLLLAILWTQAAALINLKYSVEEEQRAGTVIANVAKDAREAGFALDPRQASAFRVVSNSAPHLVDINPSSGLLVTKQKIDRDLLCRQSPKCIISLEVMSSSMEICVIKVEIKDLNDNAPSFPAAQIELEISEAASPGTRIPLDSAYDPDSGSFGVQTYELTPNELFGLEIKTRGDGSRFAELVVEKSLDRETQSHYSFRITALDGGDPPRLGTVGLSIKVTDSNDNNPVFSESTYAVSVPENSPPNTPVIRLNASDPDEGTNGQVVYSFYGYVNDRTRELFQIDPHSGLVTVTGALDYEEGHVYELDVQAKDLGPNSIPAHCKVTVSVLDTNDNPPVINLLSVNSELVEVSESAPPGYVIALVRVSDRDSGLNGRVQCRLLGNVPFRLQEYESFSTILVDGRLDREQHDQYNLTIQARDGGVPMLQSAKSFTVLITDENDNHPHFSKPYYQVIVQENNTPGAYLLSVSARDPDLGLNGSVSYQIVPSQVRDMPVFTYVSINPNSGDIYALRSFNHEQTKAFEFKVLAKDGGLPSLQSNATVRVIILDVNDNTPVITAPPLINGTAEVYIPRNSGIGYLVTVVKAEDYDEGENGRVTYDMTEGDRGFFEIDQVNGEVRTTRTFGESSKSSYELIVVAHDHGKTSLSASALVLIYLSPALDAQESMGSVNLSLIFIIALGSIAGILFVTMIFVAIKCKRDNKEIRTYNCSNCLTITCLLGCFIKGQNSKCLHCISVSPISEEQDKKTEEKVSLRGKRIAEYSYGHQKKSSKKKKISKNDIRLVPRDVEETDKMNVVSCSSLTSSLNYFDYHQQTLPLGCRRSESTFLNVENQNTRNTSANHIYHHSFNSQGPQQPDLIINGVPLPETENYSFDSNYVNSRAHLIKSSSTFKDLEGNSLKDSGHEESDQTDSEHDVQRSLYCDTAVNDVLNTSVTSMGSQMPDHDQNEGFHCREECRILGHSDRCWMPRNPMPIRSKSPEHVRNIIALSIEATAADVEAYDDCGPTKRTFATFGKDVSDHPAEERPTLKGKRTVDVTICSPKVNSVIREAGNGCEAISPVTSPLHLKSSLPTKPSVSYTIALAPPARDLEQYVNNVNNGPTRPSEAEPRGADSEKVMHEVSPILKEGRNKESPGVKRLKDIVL

These are yes or no findings as the source states them, for the method shown. In cells and extracts the contact can be indirect.

Experimental findings from publication PMC9152703 are described below.

B1: PCDH9 (protocadherin-9) (protein, UniProt Q9HC56 24-1237)
chain: QELIYTIREELPENVPIGNIPKDLNISHINAATGTSASLVYRLVSKAGDAPLVKVSSSTGEIFTTSNRIDREKLCAGASYAEENECFFELEVVILPNDFFRLIKIKIIVKDTNDNAPMFPSPVINISIPENTLINSRFPIPSATDPDTGFNGVQHYELLNGQSVFGLDIVETPEGEKWPQLIVQQNLDREQKDTYVMKIKVEDGGTPQKSSTAILQVTVSDVNDNRPVFKEGQVEVHIPENAPVGTSVIQLHATDADIGSNAEIRYIFGAQVAPATKRLFALNNTTGLITVQRSLDREETAIHKVTVLASDGSSTPARATVTINVTDVNDNPPNIDLRYIISPINGTVYLSEKDPVNTKIALITVSDKDTDVNGKVICFIEREVPFHLKAVYDNQYLLETSSLLDYEGTKEFSFKIVASDSGKPSLNQTALVRVKLEDENDNPPIFNQPVIELSVSENNRRGLYLTTISATDEDSGKNADIVYQLGPNASFFDLDRKTGVLTASRVFDREEQERFIFTVTARDNGTPPLQSQAAVIVTVLDENDNSPKFTHNHFQFFVSENLPKYSTVGVITVTDADAGENKAVTLSILNDNDNFVLDPYSGVIKSNVSFDREQQSSYTFDVKATDGGQPPRSSTAKVTINVMDVNDNSPVVISPPSNTSFKLVPLSAIPGSVVAEVFAVDVDTGMNAELKYTIVSGNNKGLFRIDPVTGNITLEEKPAPTDVGLHRLVVNISDLGYPKSLHTLVLVFLYVNDTAGNASYIYDLIRRTMETPLDRNIGDSSQPYQNEDYLTIMIAIIAGAMVVIVVIFVTVLVRCRHASRFKAAQRSKQGAEWMSPNQENKQNKKKKRKKRKSPKSSLLNFVTIEESKPDDAVHEPINGTISLPAELEEQSIGRFDWGPAPPTTFKPNSPDLAKHYKSASPQPAFHLKPDTPVSVKKHHVIQELPLDNTFVGGCDTLSKRSSTSSDHFSASECSSQGGFKTKGPLHTRQCNSHSKSDNIPVTPQKCPSSTGFHIQENEESHYESQRRVTFHLPDGSQESCSDSGLGDHEPVGSGTLISHPLPLVQPQDEFYDQASPDKRTEADGNSDPNSDGPLGPRGLAEATEMCTQECLVLGHSDNCWMPPGLGPYQHPKSPLSTFAPQKEWVKKDKLVNGHTLTRAWKEDSNRNQFNDRKQYGSNEGHFNNGSHMTDIPLANLKSYKQAGGATESPKEHQL
On to B1, for which, in assay [1], the binding entry is “no binding”.

B2: NOVA1, endogenous in rat brain (protein, UniProt Q80WA4 1-474)
chain: MAAAPIQQNGTHTGVPIDLDPPDSRKRPLEAPPEAGSTKRTNTGEDGQYFLKVLIPSYAAGSIIGKGGQTIVQLQKETGATIKLSKSKDFYPGTTERVCLIQGTIEALNAVHGFIAEKIREMPQNVAKTEPVSILQPQTTVNPDRIKQVKIIVPNSTAGLIIGKGGATVKAIMEQSGAWVQLSQKPDGINLQERVVTVSGEPEQNRKAVELIIQKIQEDPQSGSCLNISYANVTGPVANSNPTGFPYANTAEVLPTAAAAAGLLGHANLAGVAAFPAVLSGFTGNDLVAITSALNTLASYGYNLNTLGLGLSQAAATGALAAAAASANPAAAAANLLATYASEASASGSTAGGTAGTFALGSLAAATAATNGYFGAASPLAASAILGTEKSTDGSKDVVEIAVPENLVGAILGKGGKTLVEYQELTGARIQISKKGEFVPGTRNRKVTITGTPAATQAAQYLITQRITYEQGVR
Take B2: the binding entry in assay [2] is reported as “no binding”.
